Values joined by “and” are separate entries in the source; they are usually repeats but may differ in a detail not shown here. Identical values can stand only once.
Target: α-subunit of NaV1.2 neuronal sodium channels (Rattus norvegicus, UniProt P04775)
Assay: cell-based
Procedure: Stably transfected HEK 293 cell lines expressing the α-subunit of NaV1.2 neuronal sodium channels from a rat were used. The expression vector pRc/CMV (Invitrogen, San Diego, USA) was used for mammalian transfection. Transfection was performed using calcium phosphate precipitation. Permanent expression was achieved by selection for resistance to the aminoglycoside antibiotic geneticin G418 (Life Technology, Eggenstein, Germany).
The stock solution was then dissolved directly in bath solution. The bath solution contained [mM] NaCl 140, MgCl2 1.0, KCl 4.0, CaCl2 2.0, Hepes 5.0, dextrose 5.0. Patch electrodes contained [mM] CsCl2 130, MgCl2 2.0, EGTA 5.0, Hepes 10. All solutions were adjusted to 290 mosm 1^-1 by the addition of mannitol and to pH 7.4 by the addition ofCsOH.
Standard whole-cell voltage-clamp experiments were performed at 20°C. Each experiment consisted of test recordings with the drug present at only one concentration, and of drug-free control recordings before and after the test. Each cell was exposed to one test concentration only. At least three or five independent experiments were performed at each concentration depending on the active being tested.
For data acquisition and further analysis, a EPC9 digitally-controlled amplifier was used in combination with Pulse and Pulse Fit software (HEKA Electronics, Lambrecht, Germany). The EPC9 provides automatic subtraction of capacitive and leakage currents by means of a prepulse protocol. The data were filtered at 10 kHz and digitized at 20 µs per point. The input resistance of the patch pipettes was 2.0-3.5 MΩ and the capacitances of the cells were 9-15 pF; the residual series resistance (after 50% compensation) was 1.2-2.5 MΩ. Experiments with a rise in series resistance were rejected. To minimize time-dependent shifts in the voltage-dependence of steady-state inactivation, all test experiments were performed within 5 min of patch rupture.
Drug effects on the peak current amplitude were assessed at a hyperpolarized membrane potentials (-100 mV and -150mV), at a holding potential close to the normal resting potential in physiological conditions (-70 mV), and, additionally, at -100 mV in the presence of a fraction of slow inactivated channels. Slow inactivation was induced by long (2.5 s) prepulses to -90, -70, -50, -30 and -10 mV, followed by a short hyperpolarization to allow recovery from fast-inactivation. In our protocol the recovery interval was prolonged to 100 ms (instead of 10 ms originally described) in order to allow sufficient time not only for drug-free, but also for all drug-bound states to recover from fast inactivation. […]

Amino acid sequences for entries named in this document (tags omitted).
UniProt P04775, whole entry: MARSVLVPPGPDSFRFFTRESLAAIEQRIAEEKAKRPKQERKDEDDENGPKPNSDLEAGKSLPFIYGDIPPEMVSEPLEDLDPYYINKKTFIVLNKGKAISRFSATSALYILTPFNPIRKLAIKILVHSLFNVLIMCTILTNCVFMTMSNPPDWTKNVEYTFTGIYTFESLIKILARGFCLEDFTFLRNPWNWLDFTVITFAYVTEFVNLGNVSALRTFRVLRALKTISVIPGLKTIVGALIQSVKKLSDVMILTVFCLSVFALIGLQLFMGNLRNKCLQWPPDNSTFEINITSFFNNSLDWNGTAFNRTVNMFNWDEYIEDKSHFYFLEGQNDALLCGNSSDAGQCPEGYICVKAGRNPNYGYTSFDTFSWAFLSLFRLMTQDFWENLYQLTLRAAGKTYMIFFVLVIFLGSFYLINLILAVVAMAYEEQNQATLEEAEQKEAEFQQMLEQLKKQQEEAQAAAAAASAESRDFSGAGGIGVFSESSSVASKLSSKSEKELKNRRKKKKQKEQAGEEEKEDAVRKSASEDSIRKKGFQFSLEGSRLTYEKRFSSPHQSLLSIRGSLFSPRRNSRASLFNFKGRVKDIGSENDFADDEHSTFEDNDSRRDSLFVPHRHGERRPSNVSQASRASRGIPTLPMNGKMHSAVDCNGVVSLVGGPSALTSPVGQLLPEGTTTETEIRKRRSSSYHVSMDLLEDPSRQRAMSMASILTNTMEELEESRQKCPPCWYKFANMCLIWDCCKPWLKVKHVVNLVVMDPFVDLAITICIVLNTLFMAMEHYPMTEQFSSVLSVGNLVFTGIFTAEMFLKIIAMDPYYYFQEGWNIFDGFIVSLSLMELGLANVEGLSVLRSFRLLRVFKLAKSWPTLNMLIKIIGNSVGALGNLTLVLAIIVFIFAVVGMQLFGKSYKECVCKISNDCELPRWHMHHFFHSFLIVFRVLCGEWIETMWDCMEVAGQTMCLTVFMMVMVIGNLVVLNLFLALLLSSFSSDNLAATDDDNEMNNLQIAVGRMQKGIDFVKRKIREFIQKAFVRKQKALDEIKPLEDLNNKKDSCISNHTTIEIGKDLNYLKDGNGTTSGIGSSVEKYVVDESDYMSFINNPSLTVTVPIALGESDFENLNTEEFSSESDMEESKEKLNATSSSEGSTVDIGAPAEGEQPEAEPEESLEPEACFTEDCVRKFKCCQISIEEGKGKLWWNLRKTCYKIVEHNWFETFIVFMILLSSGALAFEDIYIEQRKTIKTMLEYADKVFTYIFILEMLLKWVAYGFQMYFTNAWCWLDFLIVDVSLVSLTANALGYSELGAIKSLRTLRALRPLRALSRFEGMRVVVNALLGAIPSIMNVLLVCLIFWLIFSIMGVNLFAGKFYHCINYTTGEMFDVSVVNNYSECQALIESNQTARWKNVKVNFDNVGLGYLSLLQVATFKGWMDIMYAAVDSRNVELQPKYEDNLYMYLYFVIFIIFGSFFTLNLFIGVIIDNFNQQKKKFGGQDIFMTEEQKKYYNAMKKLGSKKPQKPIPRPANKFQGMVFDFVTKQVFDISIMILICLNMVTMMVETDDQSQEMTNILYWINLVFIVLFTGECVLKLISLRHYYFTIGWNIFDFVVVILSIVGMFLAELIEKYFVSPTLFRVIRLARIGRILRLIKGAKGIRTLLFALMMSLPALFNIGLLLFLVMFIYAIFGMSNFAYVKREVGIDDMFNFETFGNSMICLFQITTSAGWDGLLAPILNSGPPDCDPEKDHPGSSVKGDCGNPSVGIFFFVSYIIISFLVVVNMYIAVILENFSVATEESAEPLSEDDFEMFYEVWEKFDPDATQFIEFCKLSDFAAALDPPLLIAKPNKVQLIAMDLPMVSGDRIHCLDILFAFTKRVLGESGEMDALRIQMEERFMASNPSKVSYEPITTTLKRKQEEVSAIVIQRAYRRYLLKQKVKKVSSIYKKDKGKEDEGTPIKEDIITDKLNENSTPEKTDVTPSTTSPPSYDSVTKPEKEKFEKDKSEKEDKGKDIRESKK

CCCCCCCCCCCCCCCC[n+]1ccccc1 [CPC, cetyl pyridinium chloride]
currents during wash-out, % of control current (-70 mV holding potential): 81 ± 5% | currents during wash-out, % of control current (-100 mV holding potential): 78 ± 5% | currents during wash-out, % of control current (-150 mV holding potential): 66 ± 7% | IC50 (ECR50, half maximum blocking concentration, resting channels, fit to concentration-response plots at -150 mV holding potential, HEK 293, 20°C): ~300 nM and 220 nM and 200 nM

Source: patent EP2570123A1, “Use of 2,4-dichlorobenzyl alcohol having an anaesthetic effect” (Reckitt Benckiser Healthcare (UK) Limited, priority 2007, dated 2009)
